This assay relates to E18 rat cortical neuron-glia co-culture. The experiment in a line: total nuclei (DAPI) / Olig2+ nuclei (ratio); higher = more depletion of OPC/OL lineage cells. Particulars: treatment time: 8 days (DIV5-DIV13).

These results are taken from the supplement of paper PMC4840960.

Structures are written as SMILES. The list shows a part of the results. Part of the spread comes from offsets between plates or batches.

Turning to `COc1ccc(C2CNC(=O)C2)cc1OC1CCCC1` (stereo not drawn) [Rolipram], the total nuclei amounted to 4.54 (1 µM) and 4.3 (5 µM).

For `C[C@@H]1CN(CCCn2c3ccccc3c3ccccc32)C[C@H](C)N1` [Rimcazole], the total nuclei runs as follows: (1 µM) 3.1; (5 µM) 10.3.

For `OC(Cn1cncn1)(Cn1cncn1)c1ccc(F)cc1F` [Fluconazole], the total nuclei (1 µM) amounted to 2.37 and the total nuclei (5 µM) worked out at 2.3.

On to `CCc1ccc(CCOc2ccc(CC3SC(=O)NC3=O)cc2)nc1` (stereo not drawn) [Pioglitazone], for which the total nuclei runs as follows: (1 µM) 2.9; (5 µM) 3.4.

In the case of `O=C1CCC(N2C(=O)c3ccccc3C2=O)C(=O)N1` (stereo not drawn) [Thalidomide], the total nuclei reads like this: (1 µM) 2.72; (5 µM) 2.6.

Regarding `CN1CCC(=C2c3ccccc3CC(=O)c3sccc32)CC1` [Ketotifen], the total nuclei reads like this: (1 µM) 2.71; (5 µM) 3.1.

Consider `Clc1ccc(CO/N=C(\Cn2ccnc2)c2ccc(Cl)cc2Cl)c(Cl)c1` [Oxiconazole], for which the total nuclei is, setting by setting: (1 µM) 4.02; (5 µM) > 40.

In the case of `OCc1cc(C(O)CNCCCCCCOCCCCc2ccccc2)ccc1O` (stereo not drawn) [Salmeterol], the total nuclei stood at 4.08 (1 µM) and 14.9 (5 µM).

Regarding `CNCC[C@@H](Oc1ccccc1C)c1ccccc1` [Atomoxetine], the total nuclei is, setting by setting: (1 µM) 3.54; (5 µM) 4.7.

`CS(N)(=O)=O` [Methanesulfonamide]: the total nuclei (1 µM) turned out to be 2.8 and the total nuclei (5 µM) turned out to be 2.7.

As to `Clc1ccccc1CN1CCc2sccc2C1` [Ticlopidine], the total nuclei by setting is: (1 µM) 2.6; (5 µM) 7.1.

`CC(C)(C)NCC(O)c1cc(O)cc(O)c1` (stereo not drawn) [Terbutaline]: the total nuclei came to 3.9 (1 µM) and 4 (5 µM).

On to `CC1(C)O[C@@H]2C[C@H]3[C@@H]4CCC5=CC(=O)C=C[C@]5(C)[C@@]4(F)[C@@H](O)C[C@]3(C)[C@]2(C(=O)CO)O1` [Triamcinolone Acetonide], for which the total nuclei was found to be 3.28 (1 µM) and 2.9 (5 µM).

As for `COc1cc(OC)c(C(=O)CCCN2CCCC2)c(OC)c1` [Buflomedil], the total nuclei was found to be 3.6 (1 µM) and 4.8 (5 µM).
